Measurements as given in PubChem BioAssay AID720625 (Broad Institute, 2013).
This is one part of the list. Where no call is shown, the source marks the result inconclusive.

Assay: time-course apoptosis signal, HRAS cell line – caspase 3/7 luminescence, plate reader, dry powder, mechanism study for HRAS target identification (AID 720625)
Conditions: HRAS cells, caspase 3/7 apoptosis luminescence, multiple timepoints; at 35 µM (top of the series)

Row | SMILES | caspase activation
1 | CO[C@H]1C[C@@H]2CC[C@@H](C)[C@@](O)(O2)C(=O)C(=O)N2CCCC[C@H]2C(=O)O[C@H]([C@H](C)C[C@@H]2CC[C@@H](O)[C@H](OC)C2)CC(=O)[C@H](C)/C=C(\C)[C@@H](O)[C@@H](OC)C(=O)[C@H](C)C[C@H](C)/C=C/C=C/C=C/1C | 11.7%
2 | Cc1onc(C(=O)N2CCN(C(c3ccc(Cl)cc3)c3ccc(Cl)cc3)CC2)c1[N+](=O)[O-] | 16.3%
3 | CCC(=O)N(c1ccc(OC)c(Cl)c1)C(C(=O)NCCc1ccccc1)c1cccs1 (stereo not drawn) | 20.9%
4 | C#CCCCC(=O)NCCOCCOCCOc1ccc(N(C(=O)CCl)C(C(=O)NCCc2ccccc2)c2cccs2)cc1Cl (stereo not drawn) | 24.9%
5 | O=C(NCCOCCOCCOc1ccc(N(C(=O)CCl)C(C(=O)NCCc2ccccc2)c2cccs2)cc1Cl)c1ccc(COC2C#CCCCCC2)cc1 (stereo not drawn) | 3.3%
6 | COc1cccc2c1C(=O)c1c(O)c3c(c(O)c1C2=O)C[C@@](O)(C(=O)CO)C[C@@H]3OC1C[C@H](N)[C@H](O)[C@H](C)O1 (stereo partly drawn) | -4.18%
7 | CC(C)(C)OC(=O)NCCOCCOCCOc1ccc(N(C(=O)CCl)C(C(=O)NCCc2ccccc2)c2cccs2)cc1Cl (stereo not drawn) | 2.2%
8 | Cc1onc(C(=O)N2CCN(C(c3ccc(Cl)cc3)c3ccc(OCCOCCOCCNC(=O)OC(C)(C)C)cc3)CC2)c1[N+](=O)[O-] (stereo not drawn) | 5.07%
